PubChem BioAssay AID330 (DTP/NCI, 2004)
The list does not hold the whole screen: it gathers tests that were run many times, whatever their T/C, doses with no T/C, and many T/C values between a quarter and a half above the control. Further doses and runs are listed elsewhere. T/C: endpoint of the treated group in % of that of the vehicle group. Some entries give survivors of the animals treated and no T/C: the source holds a T/C of zero for them, seemingly a mark for toxic or unscored doses. Some survivor counts are full or nearly so, which does not show that the dose was tolerated: survival well below the control is almost never listed, so the zero probably covers shortened survival too. Survivors were counted at the toxicity check, usually on the fifth day, unless a day is given; later deaths do not show. Schedule codes are those of the source, taken here to give the interval after Q, in days (D) or hours (H), and the number of doses after X. Some doses were run more than once; their values stand side by side, smallest first. Where survival is the endpoint, the PubChem record calls one and a half times the control and up active, and a quarter to a half above the control has no call in these data; cut-offs in other NCI protocols can differ.

Tested on: P388 leukemia ip, CD2F1 mice, survival T/C
Experiment: NCI In Vivo Anticancer Drug Screen. Data for tumor model P388 Leukemia (intraperitoneal) in CD2F1 (CDF1) mice
Conditions: T/C endpoint: median survival time, higher T/C = longer survival
[1] = dose: 200.0 mg/kg/injection, schedule: Q01DX005 (ip), vehicle: Klucel (hydroxypropylcellulose) (HPC)
[2] = dose: 200.0 mg/kg/injection, schedule: Q01DX005 (ip), vehicle: saline
[3] = dose: 25.0 mg/kg/injection, schedule: Q01DX001 (ip), vehicle: Klucel (hydroxypropylcellulose) (HPC)
[4] = dose: 50.0 mg/kg/injection, schedule: Q01DX001 (ip), vehicle: Klucel (hydroxypropylcellulose) (HPC)
[5] = dose: 100.0 mg/kg/injection, schedule: Q01DX001 (ip), vehicle: Klucel (hydroxypropylcellulose) (HPC)
[6] = dose: 400.0 mg/kg/injection, schedule: Q04DX002 (ip), vehicle: saline with Tween-80
[7] = dose: 120.0 mg/kg/injection, schedule: Q01DX005 (ip), vehicle: saline with Tween-80
[8] = dose: 200.0 mg/kg/injection, schedule: Q01DX009 (ip), vehicle: Klucel (hydroxypropylcellulose) (HPC)
[9] = dose: 100.0 mg/kg/injection, schedule: Q01DX005 (ip), vehicle: Klucel (hydroxypropylcellulose) (HPC)

`CC1(C)N=C(N)N=C(N)N1c1cccc(CCCCc2ccc(Cl)c(S(=O)(=O)F)c2)c1` was tested. Which T/C (dose: 4.0 mg/kg/injection, schedule: Q01DX009 (ip), vehicle: saline) did it give?
The T/C was 130 % of control.

And the T/C (dose: 6.0 mg/kg/injection, schedule: Q01DX009 (ip), vehicle: saline)?
Its T/C is 140 % of control.

What about the T/C (dose: 6.22 mg/kg/injection, schedule: Q01DX009 (ip), vehicle: saline) of the same molecule?
The T/C was 127 % of control.

What about the T/C (dose: 9.0 mg/kg/injection, schedule: Q01DX009 (ip), vehicle: saline) of the same molecule?
Its T/C is 135 % of control.

And the T/C (dose: 14.0 mg/kg/injection, schedule: Q01DX009 (ip), vehicle: saline)?
Its T/C is 127 % of control.

And the survivor count (dose: 21.0 mg/kg/injection, schedule: Q01DX009 (ip), vehicle: saline)?
The survivor count was 5 of 6.

For `CC1CCC2(C(=O)O)CCC3(C)C(=CCC4C5(C)CC(O)C(O)C(C)(CO)C5C(O)CC43C)C2C1C` (stereo not given), which survivor count [1] is on record?
The survivor count was 4 of 6.

`CCN(CC)CCCC(C)Nc1c(C)cnc2cc(Cl)ccc12` (stereo not given) was tested. Which survivor count [2] did it give?
The survivor count was 0 of 5.

`CC([NH-])C[NH-].[Cl][Pt+2][Cl]` (stereo not given) was tested. Which T/C (dose: 6.25 mg/kg/injection, schedule: Q01DX001 (ip), vehicle: Klucel (hydroxypropylcellulose) (HPC)) did it give?
Its T/C is 137 % of control.

And the survivor count [3]?
Its survivor count is 0 of 6.

And the survivor count [4]?
Its survivor count is 0 of 6.

What about the survivor count [5] of the same molecule?
The survivor count was 0 of 6.

And the survivor count (dose: 200.0 mg/kg/injection, schedule: Q01DX001 (ip), vehicle: Klucel (hydroxypropylcellulose) (HPC))?
The survivor count was 0 of 6.

What about the survivor count (dose: 400.0 mg/kg/injection, schedule: Q01DX001 (ip), vehicle: Klucel (hydroxypropylcellulose) (HPC)) of the same molecule?
Its survivor count is 0 of 6.

For `NC(Cc1ccccc1Cl)c1nn[nH]n1` (stereo not given), which survivor count (dose: 100.0 mg/kg/injection, schedule: Q04DX002 (ip), vehicle: saline with Tween-80) is on record?
The survivor count was 4 of 6.

What about the survivor count (dose: 200.0 mg/kg/injection, schedule: Q04DX002 (ip), vehicle: saline with Tween-80) of the same molecule?
Its survivor count is 3 of 6.

And the survivor count [6]?
The survivor count was 0 of 5 and 0 of 6.

For `O=C(NCc1ccccc1)Nc1cccc2c(NC(=O)NCc3ccccc3)cccc12`, which survivor count [7] is on record?
Its survivor count is 5 of 5.

And the survivor count (dose: 240.0 mg/kg/injection, schedule: Q01DX005 (ip), vehicle: saline with Tween-80)?
The survivor count was 6 of 6.

For `CC(=O)O[C@@H]1C[C@H]2C(C)(C)C(=O)C=C[C@]2(C)[C@H]2CC[C@]3(C)C(=CC(=O)O[C@H]3c3ccoc3)[C@@]21C`, which survivor count (dose: 5.0 mg/kg/injection, schedule: Q01DX009 (ip), vehicle: Klucel (hydroxypropylcellulose) (HPC)) is on record?
Its survivor count is 6 of 6.

What about the survivor count (dose: 20.0 mg/kg/injection, schedule: Q01DX009 (ip), vehicle: Klucel (hydroxypropylcellulose) (HPC)) of the same molecule?
Its survivor count is 6 of 6.

And the survivor count (dose: 40.0 mg/kg/injection, schedule: Q01DX009 (ip), vehicle: Klucel (hydroxypropylcellulose) (HPC))?
The survivor count was 6 of 6.

For `CCC(C)C1NC(=O)C2CCCN2C(=O)C(CC(C)C)OC(=O)CCNC(=O)C(C)N(C)C(=O)C(C(C)C)N(C)C1=O` (stereo not given), which survivor count (dose: 20.0 mg/kg/injection, schedule: Q01DX005 (ip), vehicle: saline with Tween-80) is on record?
Its survivor count is 0 of 6.

And the survivor count (dose: 40.0 mg/kg/injection, schedule: Q01DX005 (ip), vehicle: saline with Tween-80)?
Its survivor count is 0 of 6.

What about the survivor count (dose: 80.0 mg/kg/injection, schedule: Q01DX005 (ip), vehicle: saline with Tween-80) of the same molecule?
The survivor count was 0 of 6.

`CC(=O)c1ccccc1OCC(O)CNc1ccc(Cl)cc1C(=O)c1ccccc1` (stereo not given) was tested. Which survivor count [7] did it give?
Its survivor count is 6 of 6.

How did the survivor count (dose: 20.0 mg/kg/injection, schedule: Q04DX002 (ip), vehicle: saline) turn out when `O=C(O)CC(=O)O.[Cu+2].[NH-]C1CCCC2CCC[N-]C12` (stereo not given) was run?
The survivor count was 1 of 6.

For `CNCCNc1ccc(C)c2sc3ccc(O)cc3c(=O)c12`, which survivor count (dose: 50.0 mg/kg/injection, schedule: Q01DX009 (ip), vehicle: Klucel (hydroxypropylcellulose) (HPC)) is on record?
Its survivor count is 2 of 6.

And the survivor count (dose: 100.0 mg/kg/injection, schedule: Q01DX009 (ip), vehicle: Klucel (hydroxypropylcellulose) (HPC))?
Its survivor count is 5 of 6.

With `CC1NC(=O)N(C(C)(C)C)C1=O` (stereo not given) as the molecule, how does the survivor count (dose: 400.0 mg/kg/injection, schedule: Q01DX005 (ip), vehicle: saline) read?
The survivor count was 2 of 5 and 3 of 6.

With `CC(=O)Oc1ccccc1C(=O)OCC(=O)c1ccc2c(c1)Nc1ccccc1S2` as the molecule, how does the survivor count (dose: 12.5 mg/kg/injection, schedule: Q01DX001 (ip), vehicle: Klucel (hydroxypropylcellulose) (HPC)) read?
Its survivor count is 6 of 6.

What about the survivor count [3] of the same molecule?
Its survivor count is 6 of 6.

What about the survivor count [4] of the same molecule?
Its survivor count is 6 of 6.

What about the survivor count [5] of the same molecule?
The survivor count was 6 of 6.

With `N#CSc1ccc2nc(NCO)sc2c1` as the molecule, how does the survivor count [8] read?
Its survivor count is 2 of 6.

What does the source list for `O=C(CCCCC(=O)Nc1cc(C2=NCCN2)cc(C2N=CCN2)c1)Nc1cc(C2=NCCN2)cc(C2=NCCN2)c1` (stereo not given)?
survivor count (dose: 12.5 mg/kg/injection, schedule: Q01DX005 (ip), vehicle: saline): 0 of 6; survivor count (dose: 25.0 mg/kg/injection, schedule: Q01DX005 (ip), vehicle: saline): 0 of 6; survivor count (dose: 50.0 mg/kg/injection, schedule: Q01DX005 (ip), vehicle: saline): 0 of 5; survivor count (dose: 100.0 mg/kg/injection, schedule: Q01DX005 (ip), vehicle: saline): 0 of 5; survivor count [2]: 0 of 5

How did the survivor count (dose: 50.0 mg/kg/injection, schedule: Q01DX005 (ip), vehicle: Klucel (hydroxypropylcellulose) (HPC)) turn out when `CCCCCCCN(CCCCCCC)C(=N)c1ccc(OC)c2ccccc12` was run?
Its survivor count is 1 of 5.

What about the survivor count [9] of the same molecule?
The survivor count was 0 of 5.

And the survivor count [1]?
Its survivor count is 0 of 5.

`O=Cc1ccccc1/C=C/C(=O)/C=C/c1ccccc1C=O` was tested. Which survivor count [9] did it give?
Its survivor count is 1 of 5.

And the survivor count [1]?
The survivor count was 0 of 5.

How did the survivor count (dose: 200.0 mg/kg/injection, schedule: Q04DX003 (ip), vehicle: saline) turn out when `COc1ccc2c(Br)c(NC(C)=O)ccc2c1Br` was run?
Its survivor count is 6 of 6.

Which survivor count (dose: 100.0 mg/kg/injection, schedule: Q01DX009 (ip), vehicle: saline with Tween-80) does the source give for `S=C1Nc2ccccc2C2CC=NN12` (stereo not given) here?
The survivor count was 6 of 6.

`O=[N+]([O-])c1cc2[nH]cnc2c([N+](=O)[O-])c1NCc1ccccc1` was tested. Which survivor count [6] did it give?
Its survivor count is 3 of 6.

`COc1cc[n+](CC(=O)c2c[nH]c3ccccc23)cc1` was tested. Which survivor count [8] did it give?
Its survivor count is 0 of 6.

Which results are given for `C/C=C(\C)c1cc(=O)c2c(C)cc3c(c2o1)C(=O)c1c(O)c(C2CC(C)(N(C)C)C(OC(C)=O)C(C)O2)cc(C2CC(N(C)C)C(O)C(C)O2)c1C3=O` (stereo not given)?
T/C (dose: 0.15 mg/kg/injection, schedule: Q01DX009 (ip), vehicle: saline): 126 % of control; T/C (dose: 0.31 mg/kg/injection, schedule: Q01DX009 (ip), vehicle: saline): 126 % of control; T/C (dose: 0.62 mg/kg/injection, schedule: Q01DX009 (ip), vehicle: saline): 139 and 149 % of control; T/C (dose: 1.25 mg/kg/injection, schedule: Q01DX009 (ip), vehicle: saline): 145 % of control

With `CCCCCCNP(=O)(N1CC1)N1CC1` as the molecule, how does the T/C (dose: 6.25 mg/kg/injection, schedule: Q04DX003 (ip), vehicle: saline) read?
The T/C was 127 % of control.

And the T/C (dose: 12.5 mg/kg/injection, schedule: Q04DX003 (ip), vehicle: saline)?
The T/C was 136 % of control.

And the survivor count (dose: 16.5 mg/kg/injection, schedule: Q04DX003 (ip), vehicle: saline with Tween-80)?
Its survivor count is 0 of 6.

What about the survivor count (dose: 25.0 mg/kg/injection, schedule: Q04DX003 (ip), vehicle: saline with Tween-80) of the same molecule?
The survivor count was 1 of 6.

And the survivor count (dose: 37.5 mg/kg/injection, schedule: Q04DX003 (ip), vehicle: saline with Tween-80)?
The survivor count was 0 of 6.

What about the survivor count (dose: 40.0 mg/kg/injection, schedule: Q01DX009 (ip), vehicle: saline) of the same molecule?
The survivor count was 6 of 6.

What about the survivor count (dose: 50.0 mg/kg/injection, schedule: Q04DX003 (ip), vehicle: saline with Tween-80) of the same molecule?
Its survivor count is 6 of 6.
